Laboratory results from US9874558B2, “Immunoassay method less affected by impurities” (Konica Minolta, Inc., priority 2012, dated 2018).

Each compound was assayed on Trichosanthes japonica Lectin (TJA-II) (assay: SPFS sandwich immunoassay of PSA with labeled TJA-II, added competing sugar chain compound, S/N ratio). Conditions: PSA 1.0 ng/mL in commercially available serum, sugar chain compound 0.1% by weight in PBS for 10 minutes, none: S/N 2.

First: C[C@@H]1OC([C@]2(O)[C@H](O[C@H]3[C@H](O)[C@@H](O)C(O)O[C@@H]3CO)O[C@H](CO)[C@H](O)[C@@H]2O)[C@@H](O)[C@H](O)[C@@H]1O (stereo partly drawn) [2′-fucosyl-D-lactose]
Second: CC(C)CCCC(C)C1CCC2C3CC=C4CC(OC(=O)NCCOC5OC(C)[C@@H](O)C(O)[C@H]5O)CC[C@]4(C)C3CC[C@]12C (stereo partly shown) [Fuc-2-Chol]
The S/N of the first is lower: 3 for the first, 4 for the second.

First: CCCCCCCCCCCCCCCCCCCCCCCCCC(=O)N[C@@H](CO[C@H]1O[C@H](CO)[C@H](O)[C@H](O)[C@H]1O)[C@H](O)[C@H](O)CCCCCCCCCCCCCC [Galactosylceramide, α-galactosylceramide]
Second: galactosyl diglyceride
The S/N of the first is lower: 3 for the first, 4 for the second.
